Results from the M2OR odorant receptor database.
Only a part is listed here, and it is no random draw. Calls are pooled over several reports, among them a noisy single-well screen. The list shows a part of the results.

Target: T1, UniProt Q8VGZ7
T1 sequence (whole entry): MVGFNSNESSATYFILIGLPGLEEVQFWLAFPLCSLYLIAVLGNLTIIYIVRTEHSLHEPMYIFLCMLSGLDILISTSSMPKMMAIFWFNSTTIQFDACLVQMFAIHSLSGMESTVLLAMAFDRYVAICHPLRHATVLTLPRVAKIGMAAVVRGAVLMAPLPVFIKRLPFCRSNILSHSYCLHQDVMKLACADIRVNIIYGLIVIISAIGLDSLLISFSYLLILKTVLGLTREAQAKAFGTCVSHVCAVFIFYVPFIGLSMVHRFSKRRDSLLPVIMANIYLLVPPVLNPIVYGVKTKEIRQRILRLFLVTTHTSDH
Details: stereoisomer not certain
In short: (§1)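 Each entry records the cell line, G-protein, co-transfected protein and tags used. Methods varied with the source, often transient luciferase assays in mammalian cell lines. A receptor–molecule pair is called responsive (active) if the original authors judged its signal statistically different from baseline and non-responsive (inactive) otherwise.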

Row | SMILES | odorant receptor agonist call
1 | CCCCO | inactive
2 | CCCCCC(=O)O | inactive
3 | CC(=O)OC1CC2CCC1(C)C2(C)C (configuration not stated) | inactive
4 | COC(=O)c1ccccc1O | inactive
5 | C=CC(C)(O)CCC=C(C)C (configuration not stated) | inactive
6 | CCCCCCCC=O | inactive
7 | O=C1CCCCCCCCCCCCCCO1 | inactive
8 | COc1cc(C=O)ccc1O | inactive
9 | CC12CCC(C1)C(C)(C)C2=O (configuration not stated) | inactive
10 | CC12CCC(CC1)C(C)(C)O2 | inactive
11 | CCCCCCC=O | inactive
12 | CC1COCc2cc3c(cc21)C(C)(C)C(C)C3(C)C (configuration not stated) | inactive
13 | c1cnccn1 | inactive
14 | O=C1CCCCC1 | inactive
15 | CC(C)=CCCC(C)=CC=O | inactive
16 | C=CCc1ccc(OC)c(OC)c1 | inactive
17 | COc1ccccc1O | inactive
18 | CC(C)C=O | inactive
19 | CCCCCC(C)=O | inactive
20 | CCCCCCCCCC=O | inactive
21 | C=C(C)C1CC=C(C)C(=O)C1 (configuration not stated) | inactive
22 | CC(=O)c1ccccc1 | inactive
23 | CCCCCOC(C)=O | inactive
24 | CC(=O)C(C)=O | inactive
25 | CCCCCCCCC=O | inactive
26 | CC(C)(O)CCCC1=CCC(C=O)CC1 (configuration not stated) | inactive
27 | CC(C)CC(=O)O | inactive
28 | C=CCc1ccc(O)c(OC)c1 | inactive

Target: T2, UniProt Q8VH10
T2 sequence (whole entry): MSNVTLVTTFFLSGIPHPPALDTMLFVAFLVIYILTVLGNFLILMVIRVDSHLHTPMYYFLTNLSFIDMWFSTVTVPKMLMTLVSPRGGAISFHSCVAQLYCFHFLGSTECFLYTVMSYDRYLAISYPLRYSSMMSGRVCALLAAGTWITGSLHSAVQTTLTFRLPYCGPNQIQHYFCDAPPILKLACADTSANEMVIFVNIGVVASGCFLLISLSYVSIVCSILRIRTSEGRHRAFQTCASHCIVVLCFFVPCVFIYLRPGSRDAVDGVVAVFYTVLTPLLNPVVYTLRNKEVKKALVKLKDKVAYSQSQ
Details: stereoisomer not certain
In short: as §1

Row | SMILES | odorant receptor agonist call
29 | CCCCCC(=O)O | inactive
30 | CCCCCCCC=O | inactive
31 | CC12CCC(C1)C(C)(C)C2=O (configuration not stated) | inactive
32 | CCCCCCC=O | inactive
33 | O=C1CCCCC1 | inactive
34 | CCCCCC(C)=O | inactive
35 | CCCCCCCCCC=O | inactive
36 | C=C(C)C1CC=C(C)C(=O)C1 (configuration not stated) | inactive
37 | CC(=O)c1ccccc1 | inactive
38 | CCCCCCCCC=O | inactive
39 | CC(C)(O)CCCC1=CCC(C=O)CC1 (configuration not stated) | inactive

Target: T3, UniProt Q8VH16
T3 sequence (whole entry): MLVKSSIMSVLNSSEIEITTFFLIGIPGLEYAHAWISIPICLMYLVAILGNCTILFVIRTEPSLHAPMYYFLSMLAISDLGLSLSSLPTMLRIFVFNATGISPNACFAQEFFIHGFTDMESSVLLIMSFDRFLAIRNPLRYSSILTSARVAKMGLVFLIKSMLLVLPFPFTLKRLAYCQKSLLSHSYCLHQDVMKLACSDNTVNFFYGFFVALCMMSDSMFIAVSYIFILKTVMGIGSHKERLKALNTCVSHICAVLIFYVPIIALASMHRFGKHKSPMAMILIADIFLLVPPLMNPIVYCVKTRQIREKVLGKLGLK
Details: stereoisomer not certain
In short: as §1

Row | SMILES | odorant receptor agonist call
40 | CCCCO | inactive
41 | CCCCCC(=O)O | inactive
42 | CC(=O)OC1CC2CCC1(C)C2(C)C (configuration not stated) | inactive
43 | COC(=O)c1ccccc1O | inactive
44 | C=CC(C)(O)CCC=C(C)C (configuration not stated) | inactive
45 | CCCCCCCC=O | inactive
46 | O=C1CCCCCCCCCCCCCCO1 | inactive
47 | COc1cc(C=O)ccc1O | inactive
48 | CC12CCC(CC1)C(C)(C)O2 | inactive
49 | CCCCCCC=O | inactive
50 | CC1COCc2cc3c(cc21)C(C)(C)C(C)C3(C)C (configuration not stated) | inactive
51 | c1cnccn1 | inactive
52 | CC(C)=CCCC(C)=CC=O | inactive
53 | C=CCc1ccc(OC)c(OC)c1 | inactive
54 | COc1ccccc1O | inactive
55 | CC(C)C=O | inactive
56 | CCCCCC(C)=O | inactive
57 | CCCCCCCCCC=O | inactive
58 | C=C(C)C1CC=C(C)C(=O)C1 (configuration not stated) | inactive
59 | CC(=O)c1ccccc1 | inactive
60 | CCCCCOC(C)=O | inactive
61 | CC(=O)C(C)=O | inactive
62 | CCCCCCCCC=O | inactive
63 | CC(C)(O)CCCC1=CCC(C=O)CC1 (configuration not stated) | inactive
64 | CC(C)CC(=O)O | inactive
65 | C=CCc1ccc(O)c(OC)c1 | inactive

Target: T4, UniProt Q8VH18
T4 sequence (whole entry): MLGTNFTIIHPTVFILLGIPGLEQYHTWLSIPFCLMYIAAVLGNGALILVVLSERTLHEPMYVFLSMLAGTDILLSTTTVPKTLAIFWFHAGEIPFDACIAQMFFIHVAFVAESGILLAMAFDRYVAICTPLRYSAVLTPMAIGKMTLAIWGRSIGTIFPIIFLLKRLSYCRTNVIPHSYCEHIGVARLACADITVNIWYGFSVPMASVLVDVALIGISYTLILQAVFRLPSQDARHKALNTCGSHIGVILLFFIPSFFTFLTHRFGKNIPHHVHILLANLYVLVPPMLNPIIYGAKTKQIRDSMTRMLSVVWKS
Details: stereoisomer not certain
In short: as §1

Row | SMILES | odorant receptor agonist call
66 | CCCCCCC=O | inactive
67 | C=C(C)C1CC=C(C)C(=O)C1 (configuration not stated) | inactive
68 | CC(=O)c1ccccc1 | inactive
69 | CCCCCOC(C)=O | inactive
70 | CCCCCCCCC=O | inactive
71 | CCCC(=O)O | inactive
72 | CC(C)CC(=O)O | inactive
73 | C=CCc1ccc(O)c(OC)c1 | inactive

Target: T5, UniProt Q8VH20
T5 sequence (whole entry): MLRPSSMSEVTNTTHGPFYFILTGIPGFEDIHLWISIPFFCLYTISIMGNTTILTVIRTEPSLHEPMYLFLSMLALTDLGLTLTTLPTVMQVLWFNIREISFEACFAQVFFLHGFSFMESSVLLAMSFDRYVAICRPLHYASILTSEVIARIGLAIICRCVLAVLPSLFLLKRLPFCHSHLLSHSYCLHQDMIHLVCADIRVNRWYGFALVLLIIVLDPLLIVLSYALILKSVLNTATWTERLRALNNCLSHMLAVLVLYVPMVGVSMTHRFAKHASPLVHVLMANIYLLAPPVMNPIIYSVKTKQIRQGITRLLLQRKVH
Details: stereoisomer not certain
In short: as §1

Row | SMILES | odorant receptor agonist call
74 | CCCCO | inactive
75 | CCCCCC(=O)O | inactive
76 | CC(=O)OC1CC2CCC1(C)C2(C)C (configuration not stated) | inactive
77 | COC(=O)c1ccccc1O | inactive
78 | C=CC(C)(O)CCC=C(C)C (configuration not stated) | inactive
79 | CCCCCCCC=O | inactive
80 | O=C1CCCCCCCCCCCCCCO1 | inactive
81 | COc1cc(C=O)ccc1O | inactive
82 | CC12CCC(C1)C(C)(C)C2=O (configuration not stated) | inactive
83 | CC12CCC(CC1)C(C)(C)O2 | inactive
84 | CCCCCCC=O | inactive
85 | CC1COCc2cc3c(cc21)C(C)(C)C(C)C3(C)C (configuration not stated) | inactive
86 | c1cnccn1 | inactive
87 | O=C1CCCCC1 | inactive
88 | CC(C)=CCCC(C)=CC=O | inactive
89 | C=CCc1ccc(OC)c(OC)c1 | inactive
90 | COc1ccccc1O | inactive
91 | CC(C)C=O | inactive
92 | CCCCCC(C)=O | inactive
93 | CCCCCCCCCC=O | inactive
94 | C=C(C)C1CC=C(C)C(=O)C1 (configuration not stated) | inactive
95 | CC(=O)c1ccccc1 | inactive
96 | CCCCCOC(C)=O | inactive
97 | CC(=O)C(C)=O | inactive
98 | CCCCCCCCC=O | inactive
99 | CC(C)(O)CCCC1=CCC(C=O)CC1 (configuration not stated) | inactive
100 | CC(C)CC(=O)O | inactive
101 | C=CCc1ccc(O)c(OC)c1 | inactive

Target: T6, UniProt Q8VH21
T6 sequence (whole entry): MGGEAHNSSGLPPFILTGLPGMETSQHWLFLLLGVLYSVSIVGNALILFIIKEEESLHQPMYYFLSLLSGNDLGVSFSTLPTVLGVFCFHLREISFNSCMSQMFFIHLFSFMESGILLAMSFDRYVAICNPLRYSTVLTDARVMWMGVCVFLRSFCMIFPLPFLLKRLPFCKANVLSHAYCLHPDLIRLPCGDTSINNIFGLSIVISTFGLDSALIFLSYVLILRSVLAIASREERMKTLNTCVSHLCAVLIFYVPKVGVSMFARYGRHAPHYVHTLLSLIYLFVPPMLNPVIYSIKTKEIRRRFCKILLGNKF
Details: stereoisomer not certain
In short: as §1

Row | SMILES | odorant receptor agonist call
102 | CCCCO | inactive
103 | CCCCCC(=O)O | inactive
104 | CC(=O)OC1CC2CCC1(C)C2(C)C (configuration not stated) | inactive
105 | COC(=O)c1ccccc1O | inactive
106 | C=CC(C)(O)CCC=C(C)C (configuration not stated) | inactive
107 | CCCCCCCC=O | inactive
108 | O=C1CCCCCCCCCCCCCCO1 | inactive
109 | COc1cc(C=O)ccc1O | inactive
110 | CC12CCC(CC1)C(C)(C)O2 | inactive
111 | CCCCCCC=O | inactive
112 | CC1COCc2cc3c(cc21)C(C)(C)C(C)C3(C)C (configuration not stated) | inactive
113 | c1cnccn1 | inactive
114 | CC(C)=CCCC(C)=CC=O | inactive
115 | C=CCc1ccc(OC)c(OC)c1 | inactive
116 | COc1ccccc1O | inactive
117 | CC(C)C=O | inactive
118 | CCCCCC(C)=O | inactive
119 | CCCCCCCCCC=O | inactive
120 | C=C(C)C1CC=C(C)C(=O)C1 (configuration not stated) | inactive
121 | CC(=O)c1ccccc1 | inactive
122 | CCCCCOC(C)=O | inactive
123 | CC(=O)C(C)=O | inactive
124 | CCCCCCCCC=O | inactive
125 | CC(C)(O)CCCC1=CCC(C=O)CC1 (configuration not stated) | inactive
126 | CC(C)CC(=O)O | inactive
127 | C=CCc1ccc(O)c(OC)c1 | inactive
